Where a chain is given by its changes, count along the chain named. Results are given in words; binding and its absence hold for the method and conditions named. Binding seen in cells or lysates may run through a third protein. Some results given as binding are weak or reduced against the parent protein; the word gives no strength.
Legend:
[1] = biological target: T1, CLCC1 (chloride channel CLIC-like 1), wild type (human) (UniProt Q96S66); assay: co-IP; Dynabeads Protein G loaded with CLCC1 antibody (HPA013210), incubated 2 h at 4°C with total ARPE19 protein lysate (20 mM Tris-HCl, 150 mM KCl, 0.1% Triton); western blot for Calreticulin
T1 sequence: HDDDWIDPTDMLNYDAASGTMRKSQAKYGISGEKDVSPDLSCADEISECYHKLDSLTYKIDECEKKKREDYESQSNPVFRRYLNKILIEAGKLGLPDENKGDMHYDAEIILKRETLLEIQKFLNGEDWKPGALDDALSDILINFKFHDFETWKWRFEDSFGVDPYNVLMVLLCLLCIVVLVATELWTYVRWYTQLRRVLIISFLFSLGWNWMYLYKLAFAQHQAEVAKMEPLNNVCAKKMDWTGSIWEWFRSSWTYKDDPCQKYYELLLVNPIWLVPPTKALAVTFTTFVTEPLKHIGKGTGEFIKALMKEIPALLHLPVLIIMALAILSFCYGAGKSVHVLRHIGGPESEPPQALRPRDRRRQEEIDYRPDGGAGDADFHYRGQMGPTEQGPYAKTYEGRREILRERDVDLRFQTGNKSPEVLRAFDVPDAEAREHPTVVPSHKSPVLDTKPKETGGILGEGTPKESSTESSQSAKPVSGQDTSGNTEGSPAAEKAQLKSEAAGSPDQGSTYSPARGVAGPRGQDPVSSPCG

[2] = biological target: T2, CLCC1 p.D25E mutant (human) (UniProt Q96S66); assay: as above
T2 sequence: T1 sequence with D7E

Substance: Calreticulin (from UniProt P27797 18-417)
- binding [1]: binds
- binding [2]: binds

— article PMC6133373
